Some of the results follow.
Compound: Cc1cc(ccc1-c1ccccc1)C(=O)N1CCCN(CC1)C(=O)CCl [compound 10]
Assay: probe-labelled cysteine peptide fold change vs DMSO (competition) (log2 fold change); higher = less target engagement (more negative = stronger competition)
Conditions: THP-1, incubation time: 4 h
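Further: competitive profiling in live THP-1 cells: cysteine peptides tagged with an iodoacetamide desthiobiotin (IA-DTB) probe, intensity after compound treatment relative to DMSO-treated cells.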

Chains of the proteins cited; added tags and fusions are not shown. Lines headed by an entry give the natural chain unless they say otherwise; changes in a name come on top.
UniProt Q6SJ93: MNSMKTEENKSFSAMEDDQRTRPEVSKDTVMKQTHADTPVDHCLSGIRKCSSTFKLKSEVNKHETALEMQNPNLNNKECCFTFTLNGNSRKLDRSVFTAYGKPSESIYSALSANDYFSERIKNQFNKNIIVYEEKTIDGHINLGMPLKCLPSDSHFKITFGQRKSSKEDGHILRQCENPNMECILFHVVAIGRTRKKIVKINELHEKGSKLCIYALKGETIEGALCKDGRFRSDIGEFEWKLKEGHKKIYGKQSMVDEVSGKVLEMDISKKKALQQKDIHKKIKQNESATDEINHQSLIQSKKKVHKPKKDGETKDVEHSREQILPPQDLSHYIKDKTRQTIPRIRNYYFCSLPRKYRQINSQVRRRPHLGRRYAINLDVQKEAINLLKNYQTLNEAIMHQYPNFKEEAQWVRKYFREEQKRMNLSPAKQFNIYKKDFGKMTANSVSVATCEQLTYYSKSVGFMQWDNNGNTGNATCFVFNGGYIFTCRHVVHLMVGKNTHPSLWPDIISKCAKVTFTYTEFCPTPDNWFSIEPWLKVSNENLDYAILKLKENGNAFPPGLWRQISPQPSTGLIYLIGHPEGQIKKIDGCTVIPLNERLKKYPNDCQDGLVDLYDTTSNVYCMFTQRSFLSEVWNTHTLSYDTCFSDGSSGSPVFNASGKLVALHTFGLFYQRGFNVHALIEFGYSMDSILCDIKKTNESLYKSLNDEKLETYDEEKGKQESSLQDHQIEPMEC
UniProt Q9BZQ8: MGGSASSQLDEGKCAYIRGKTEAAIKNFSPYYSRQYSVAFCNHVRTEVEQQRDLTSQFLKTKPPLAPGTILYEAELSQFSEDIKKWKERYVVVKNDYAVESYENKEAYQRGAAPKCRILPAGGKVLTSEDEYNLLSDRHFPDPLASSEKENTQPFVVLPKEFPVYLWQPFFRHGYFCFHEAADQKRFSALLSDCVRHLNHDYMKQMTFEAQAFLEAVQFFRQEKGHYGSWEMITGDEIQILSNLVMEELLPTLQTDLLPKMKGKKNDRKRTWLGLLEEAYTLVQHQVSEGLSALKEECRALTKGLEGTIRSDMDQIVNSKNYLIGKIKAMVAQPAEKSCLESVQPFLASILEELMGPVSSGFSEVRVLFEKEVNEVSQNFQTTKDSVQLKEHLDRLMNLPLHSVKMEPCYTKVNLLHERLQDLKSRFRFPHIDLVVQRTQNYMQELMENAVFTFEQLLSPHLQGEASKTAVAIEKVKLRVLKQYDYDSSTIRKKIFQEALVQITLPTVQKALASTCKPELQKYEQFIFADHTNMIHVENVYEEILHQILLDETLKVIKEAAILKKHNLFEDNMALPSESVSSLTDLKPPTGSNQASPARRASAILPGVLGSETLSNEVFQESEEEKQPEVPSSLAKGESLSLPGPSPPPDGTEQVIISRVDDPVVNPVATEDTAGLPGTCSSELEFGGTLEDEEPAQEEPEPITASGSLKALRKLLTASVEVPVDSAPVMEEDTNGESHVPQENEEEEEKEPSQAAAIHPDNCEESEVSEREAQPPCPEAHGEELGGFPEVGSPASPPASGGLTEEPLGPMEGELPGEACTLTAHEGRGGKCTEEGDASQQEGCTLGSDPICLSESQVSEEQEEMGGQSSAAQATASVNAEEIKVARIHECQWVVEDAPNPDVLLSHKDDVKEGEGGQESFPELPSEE
UniProt Q9NVH0: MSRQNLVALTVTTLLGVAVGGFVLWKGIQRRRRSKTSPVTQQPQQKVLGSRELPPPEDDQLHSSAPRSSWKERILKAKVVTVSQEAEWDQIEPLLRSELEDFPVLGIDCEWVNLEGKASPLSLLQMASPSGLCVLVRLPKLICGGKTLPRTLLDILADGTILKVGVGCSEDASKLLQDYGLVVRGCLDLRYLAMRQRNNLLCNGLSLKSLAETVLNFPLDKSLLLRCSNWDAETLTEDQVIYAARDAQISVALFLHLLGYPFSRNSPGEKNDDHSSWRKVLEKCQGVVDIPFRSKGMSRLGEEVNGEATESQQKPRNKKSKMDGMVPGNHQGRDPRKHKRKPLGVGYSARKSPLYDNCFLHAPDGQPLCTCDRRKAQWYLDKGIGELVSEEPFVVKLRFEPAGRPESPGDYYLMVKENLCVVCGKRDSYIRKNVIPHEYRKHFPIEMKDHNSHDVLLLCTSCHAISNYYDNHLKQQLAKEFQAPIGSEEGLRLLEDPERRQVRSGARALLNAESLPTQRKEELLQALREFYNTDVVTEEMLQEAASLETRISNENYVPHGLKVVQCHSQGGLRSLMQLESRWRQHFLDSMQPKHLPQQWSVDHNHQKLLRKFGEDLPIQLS
UniProt Q96KP1: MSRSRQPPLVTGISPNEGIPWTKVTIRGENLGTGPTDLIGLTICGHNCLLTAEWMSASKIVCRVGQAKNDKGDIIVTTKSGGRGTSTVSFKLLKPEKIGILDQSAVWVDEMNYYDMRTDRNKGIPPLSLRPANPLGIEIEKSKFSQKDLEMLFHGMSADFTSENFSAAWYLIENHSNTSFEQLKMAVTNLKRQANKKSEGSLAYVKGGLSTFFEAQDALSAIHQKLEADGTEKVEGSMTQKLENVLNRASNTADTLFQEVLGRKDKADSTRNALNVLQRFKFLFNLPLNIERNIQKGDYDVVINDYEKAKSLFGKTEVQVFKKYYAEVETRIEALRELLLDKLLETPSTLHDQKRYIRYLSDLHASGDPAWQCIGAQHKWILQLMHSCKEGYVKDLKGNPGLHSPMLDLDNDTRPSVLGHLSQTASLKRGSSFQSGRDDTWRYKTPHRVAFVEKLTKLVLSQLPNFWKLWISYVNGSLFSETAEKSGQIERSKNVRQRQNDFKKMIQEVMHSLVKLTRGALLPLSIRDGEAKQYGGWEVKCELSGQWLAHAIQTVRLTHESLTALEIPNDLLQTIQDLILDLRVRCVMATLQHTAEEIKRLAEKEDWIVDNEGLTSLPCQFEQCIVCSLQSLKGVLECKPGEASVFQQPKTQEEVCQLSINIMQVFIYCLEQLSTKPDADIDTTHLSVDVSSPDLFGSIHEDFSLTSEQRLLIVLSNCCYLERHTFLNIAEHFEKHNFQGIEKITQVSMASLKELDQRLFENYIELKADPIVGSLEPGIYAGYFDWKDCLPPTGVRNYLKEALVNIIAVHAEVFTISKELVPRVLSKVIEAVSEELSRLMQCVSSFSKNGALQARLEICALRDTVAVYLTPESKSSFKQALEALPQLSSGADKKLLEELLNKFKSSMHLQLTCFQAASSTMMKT
UniProt O95571: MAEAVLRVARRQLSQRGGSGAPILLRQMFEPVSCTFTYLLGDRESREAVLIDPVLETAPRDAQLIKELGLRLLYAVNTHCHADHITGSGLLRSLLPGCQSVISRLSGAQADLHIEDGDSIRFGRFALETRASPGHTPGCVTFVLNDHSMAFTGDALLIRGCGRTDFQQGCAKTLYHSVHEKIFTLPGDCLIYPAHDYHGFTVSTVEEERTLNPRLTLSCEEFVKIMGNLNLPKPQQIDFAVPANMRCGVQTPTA
UniProt Q9UPT5: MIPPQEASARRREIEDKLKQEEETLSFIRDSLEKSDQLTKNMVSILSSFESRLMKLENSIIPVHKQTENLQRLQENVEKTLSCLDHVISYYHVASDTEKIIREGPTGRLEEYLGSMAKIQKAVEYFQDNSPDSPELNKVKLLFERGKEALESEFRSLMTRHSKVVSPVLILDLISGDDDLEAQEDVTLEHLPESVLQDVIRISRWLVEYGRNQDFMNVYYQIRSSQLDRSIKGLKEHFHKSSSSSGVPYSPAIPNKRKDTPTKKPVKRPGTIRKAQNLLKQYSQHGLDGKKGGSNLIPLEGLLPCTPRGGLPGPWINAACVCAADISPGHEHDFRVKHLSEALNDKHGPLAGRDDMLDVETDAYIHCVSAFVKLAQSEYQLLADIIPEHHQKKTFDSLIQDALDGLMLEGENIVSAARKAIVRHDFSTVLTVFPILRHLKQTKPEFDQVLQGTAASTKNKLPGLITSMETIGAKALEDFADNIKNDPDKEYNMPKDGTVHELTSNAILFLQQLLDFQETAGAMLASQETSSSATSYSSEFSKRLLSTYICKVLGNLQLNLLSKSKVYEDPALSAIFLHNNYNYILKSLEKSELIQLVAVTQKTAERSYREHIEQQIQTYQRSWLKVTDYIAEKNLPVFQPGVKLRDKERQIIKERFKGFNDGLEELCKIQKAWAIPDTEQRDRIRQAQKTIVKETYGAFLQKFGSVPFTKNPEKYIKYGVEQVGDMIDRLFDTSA
UniProt P84090, whole entry, looked up: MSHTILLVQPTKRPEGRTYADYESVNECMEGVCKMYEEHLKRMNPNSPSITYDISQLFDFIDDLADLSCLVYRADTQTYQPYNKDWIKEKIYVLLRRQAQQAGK
UniProt Q9NVQ4: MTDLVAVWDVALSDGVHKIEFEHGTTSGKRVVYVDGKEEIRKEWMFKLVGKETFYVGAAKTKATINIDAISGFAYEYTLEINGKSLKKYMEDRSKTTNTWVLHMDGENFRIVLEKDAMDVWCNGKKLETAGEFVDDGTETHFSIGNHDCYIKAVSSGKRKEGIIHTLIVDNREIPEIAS
UniProt Q06265, whole entry, looked up: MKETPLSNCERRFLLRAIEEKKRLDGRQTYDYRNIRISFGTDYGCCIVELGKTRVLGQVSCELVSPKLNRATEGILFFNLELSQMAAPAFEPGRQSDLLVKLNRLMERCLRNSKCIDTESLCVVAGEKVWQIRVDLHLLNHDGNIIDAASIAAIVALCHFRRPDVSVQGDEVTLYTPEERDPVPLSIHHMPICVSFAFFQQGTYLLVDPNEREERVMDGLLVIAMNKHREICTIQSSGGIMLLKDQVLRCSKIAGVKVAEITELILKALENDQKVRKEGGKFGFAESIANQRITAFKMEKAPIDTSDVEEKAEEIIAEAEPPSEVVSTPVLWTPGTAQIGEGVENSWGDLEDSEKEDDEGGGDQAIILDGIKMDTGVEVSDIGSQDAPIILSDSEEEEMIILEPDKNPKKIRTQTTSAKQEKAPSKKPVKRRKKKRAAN
UniProt P13804: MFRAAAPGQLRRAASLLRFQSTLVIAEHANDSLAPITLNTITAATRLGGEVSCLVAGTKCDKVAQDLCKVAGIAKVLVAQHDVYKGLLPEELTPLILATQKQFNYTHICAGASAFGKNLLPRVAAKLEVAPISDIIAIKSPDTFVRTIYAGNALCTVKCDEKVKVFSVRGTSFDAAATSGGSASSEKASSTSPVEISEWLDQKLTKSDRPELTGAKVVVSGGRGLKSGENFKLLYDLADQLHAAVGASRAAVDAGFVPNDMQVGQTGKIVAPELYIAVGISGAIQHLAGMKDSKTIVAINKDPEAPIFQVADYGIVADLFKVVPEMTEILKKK
UniProt P10768: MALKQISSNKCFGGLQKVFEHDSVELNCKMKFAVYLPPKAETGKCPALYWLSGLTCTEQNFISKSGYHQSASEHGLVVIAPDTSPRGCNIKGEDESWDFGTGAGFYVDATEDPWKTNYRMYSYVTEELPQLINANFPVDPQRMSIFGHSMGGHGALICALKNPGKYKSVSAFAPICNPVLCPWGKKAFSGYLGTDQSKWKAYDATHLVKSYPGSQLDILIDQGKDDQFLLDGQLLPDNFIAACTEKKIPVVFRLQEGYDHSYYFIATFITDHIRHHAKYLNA
UniProt Q8IV48: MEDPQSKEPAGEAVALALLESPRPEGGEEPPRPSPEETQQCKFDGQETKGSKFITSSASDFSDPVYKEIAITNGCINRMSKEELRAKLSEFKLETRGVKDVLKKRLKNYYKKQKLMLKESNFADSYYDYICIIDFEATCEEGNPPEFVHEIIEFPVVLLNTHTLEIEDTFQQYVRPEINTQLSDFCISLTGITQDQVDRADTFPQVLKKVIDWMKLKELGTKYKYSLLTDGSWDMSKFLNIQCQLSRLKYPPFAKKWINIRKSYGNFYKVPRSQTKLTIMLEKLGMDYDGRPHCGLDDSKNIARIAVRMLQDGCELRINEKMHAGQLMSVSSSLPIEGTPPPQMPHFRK

Row | Target | probe-labelled cysteine peptide fold change (10 µM) | probe-labelled cysteine peptide fold change (50 µM)
1 | FAM111B_Q6SJ93_590_IDGCTVIPLNER (UniProt Q6SJ93) | -0.0515 | 0.0403
2 | FAM129A_Q9BZQ8_41_QYSVAFCNHVR (UniProt Q9BZQ8) | -0.0973 | -0.0411
3 | EXD2_Q9NVH0_133_ASPLSLLQMASPSGLCVLVR (UniProt Q9NVH0) | -0.275 | -0.277
4 | EXOC2_Q96KP1_859_LEICALR (UniProt Q96KP1) | -0.0782 | -0.0077
5 | ETHE1_O95571_80_LLYAVNTHCHADHITGSGLLR (UniProt O95571) | -0.0738 | -0.00282
6 | EXOC7_Q9UPT5_367_HGPLAGRDDMLDVETDAYIHCVSAFVK (UniProt Q9UPT5) | -0.0432 | -0.2
7 | ERH_P84090_33_TYADYESVNECMEGVCK (UniProt P84090) | 0.039 | -0.0155
8 | ERLIN1_O75477_128_IHHELNQFCSAHTLQEVYIELFDQIDENLK (UniProt O75477) | 0.195 | 0.249
9 | FAIM_Q9NVQ4_149_KLETAGEFVDDGTETHFSIGNHDCYIK (UniProt Q9NVQ4) | 0.045 | 0.0106
10 | EXOSC9_Q06265_9_ETPLSNCER (UniProt Q06265) | -0.234 | 0.042
11 | ETFA_P13804_155_TIYAGNALCTVK (UniProt P13804) | 0.126 | -0.197
12 | ESD_P10768_158_MSIFGHSMGGHGALICALK (UniProt P10768) | 0.0855 | -0.322
13 | FAM120B_Q96EK7_511_QEVPICTDPISK (UniProt Q96EK7) | -0.187 | 0.0894
14 | ERI1_Q8IV48_314_MLQDGCELR (UniProt Q8IV48) | -0.00467 | 0.151

Reprinted at random: 2 records from the list.
Row | Target | probe-labelled cysteine peptide fold change (10 µM) | probe-labelled cysteine peptide fold change (50 µM)
10 | EXOSC9_Q06265_9_ETPLSNCER (UniProt Q06265) | -0.234 | 0.042
11 | ETFA_P13804_155_TIYAGNALCTVK (UniProt P13804) | 0.126 | -0.197
